Experimental data taken from the supplement of paper PMC3334620.
Whole data set: some 33,000 sequences, median “E-score (-0.5 to 0.5)” near -0.015, cut for the highest 2% near 0.3. This is one part of the list.

What follows are sequences tested against T1, Abf1 (UniProt P14164) (assay: PBM E-score (8-mer binding enrichment) (E-score (-0.5 to 0.5)); higher = stronger / more preferred TF binding). Settings: protein concentration: 200 nM; construct: GST-full length.
T1 sequence: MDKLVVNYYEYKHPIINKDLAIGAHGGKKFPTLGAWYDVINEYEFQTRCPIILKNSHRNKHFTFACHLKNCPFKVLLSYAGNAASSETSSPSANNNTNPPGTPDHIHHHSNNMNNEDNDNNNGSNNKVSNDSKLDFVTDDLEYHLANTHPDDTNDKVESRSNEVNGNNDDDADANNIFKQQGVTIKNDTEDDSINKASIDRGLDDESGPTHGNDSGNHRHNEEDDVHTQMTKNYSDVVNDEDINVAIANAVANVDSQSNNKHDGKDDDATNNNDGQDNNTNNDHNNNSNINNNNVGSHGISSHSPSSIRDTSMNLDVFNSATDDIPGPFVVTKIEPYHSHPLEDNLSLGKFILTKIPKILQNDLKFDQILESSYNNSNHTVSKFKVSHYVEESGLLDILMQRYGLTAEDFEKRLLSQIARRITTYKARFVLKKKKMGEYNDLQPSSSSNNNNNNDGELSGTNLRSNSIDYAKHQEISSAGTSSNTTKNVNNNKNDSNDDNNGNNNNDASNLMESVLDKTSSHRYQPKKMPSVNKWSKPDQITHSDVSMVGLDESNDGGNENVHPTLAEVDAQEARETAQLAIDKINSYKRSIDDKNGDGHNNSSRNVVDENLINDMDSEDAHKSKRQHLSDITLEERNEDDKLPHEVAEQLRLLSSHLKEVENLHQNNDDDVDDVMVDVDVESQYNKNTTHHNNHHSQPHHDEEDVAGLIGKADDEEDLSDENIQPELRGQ
In short: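 Full-length yeast transcription factors or their DNA-binding domains, GST-tagged and expressed with PURExpress, were applied at about 100-200 nM to universal all-10-mer Agilent arrays. These arrays had been made double-stranded by primer extension on fresh or once-stripped slides. Detection used fluorescent anti-GST, normalisation used masliner, and E-scores for ungapped eight-base words pooled with reverse complements came from the Universal PBM Analysis Suite.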

| Sequence | PBM E-score |
| --- | --- |
| GCGGAATA | -0.105 |
| CGGCGTTC | -0.0709 |
| CCTGGTAA | -0.0473 |
| ATTGATAA | 0.27 |
| CCTAGTAG | -0.114 |
| CCCGACGA | 0.196 |
| CACCATGC | -0.175 |
| GAGTTTTA | 0.0253 |
| AGCACAAA | 0.0191 |
| ACCATCGT | 0.0143 |
| CAGATGGG | -0.114 |
| CAAGACGG | 0.0238 |
| ACCGAATA | -0.0212 |
| GTCCCGGA | -0.0327 |
| GCACGCAC | 0.0219 |
| AACGGGAG | -0.00676 |
| TCACGCGA | 0.205 |
| CCCCTTAA | -0.237 |
| TCTCGGCA | -0.204 |
| ACACATAA | 0.0214 |
| CCTCGAGA | -0.0603 |
| ACCTCACT | 0.173 |
| ACACGTAG | 0.0977 |
| TAGACGGA | 0.122 |
| AAGCTGCT | -0.165 |

| Sequence | PBM E-score |
| --- | --- |
| GAGCTTTA | 0.111 |
| GCGGGACC | -0.214 |
| CGTAGCAA | 0.265 |
| CGGTAGGC | -0.0138 |
| GTGGCTTA | -0.154 |
| CGCAGTCC | -0.202 |
| GAGGCTTA | -0.159 |
| CTTCCAAC | -0.16 |
| TTTTAAAA | 0.0597 |
| AGTGTACA | 0.0412 |
| AGGGGAGA | -0.2 |
| AGGAGAGA | -0.0544 |
| GAGACTCC | 0.00659 |
| CGCTGTCC | 0.108 |
| CAAAAGTG | -0.12 |
| CGAAAGTC | -0.0339 |
| AAAGAGTG | -0.101 |
| CACTGCGC | -0.134 |
| AGTAAAAG | 0.0975 |
| GTCCACTA | -0.101 |
| GTCAAGTA | -0.221 |
| ATTGCGAA | -0.152 |
| AGTCGGTA | -0.0267 |
| AACCCAGG | -0.216 |
| GGTGGTAA | 0.0494 |

Individual results from the results shown.
AGTCGGTA – PBM E-score: -0.0267
CTTCCAAC – PBM E-score: -0.16
GTCCACTA – PBM E-score: -0.101

Later entries

| Sequence | PBM E-score |
| --- | --- |
| ACTCTACC | -0.0571 |
| TGGAAGAA | -0.0974 |
| ATCATGCC | 0.177 |
| ACCATGTG | -0.0211 |
| TCCCATCA | -0.102 |
| AAAGCGTC | -0.0654 |
| ATAATTAG | 0.0579 |
| TATGGTAA | 0.0129 |
| GGCATGTA | -0.0593 |
| GCGTGGAA | -0.105 |
| GTACAAAC | 0.135 |
| AACGAGTC | 0.0142 |
| AGCATTGG | -0.299 |
| AGCCTCGC | -0.199 |
| CATAACCA | 0.105 |
| ATTAGTGA | 0.365 |
| GTGAGTCA | 0.0794 |
| CATCCACC | -0.0205 |
| GTAAGAAA | 0.176 |
| CCAGACCG | -0.0908 |
| AAAGTACT | -0.0068 |
| CCCACAGC | -0.163 |
| AGCCCGGC | -0.214 |
| GCTCTACC | -0.218 |
| AAAAAGAA | 0.049 |

Retrieved one by one from the entries so far, three records:

| Sequence | PBM E-score |
| --- | --- |
| CATCCACC | -0.0205 |
| GTGAGTCA | 0.0794 |
| CCCACAGC | -0.163 |

More records follow.

| Sequence | PBM E-score |
| --- | --- |
| AGTATCCC | -0.204 |
| AACATTGT | -0.0553 |
| TCTCTGAA | -0.138 |
| AATGAAAT | 0.166 |
| AACTCGGT | 0.019 |
| AATTACGG | 0.111 |
| ATAGAATC | -0.00784 |
| ACATGATG | 0.119 |
| GTTTTTAA | 0.238 |
| ACCGTCGG | 0.157 |
| ATCGCCGG | -0.0123 |
| GCTCCACC | -0.139 |
| ACCCCTCG | -0.17 |
| AGCTCAAC | -0.0887 |
| AGTGACTG | 0.175 |
| AACCCATA | 0.0578 |
| AGTGCTGC | -0.0615 |
| CAGTTATC | 0.0477 |
| AAACTCTA | -0.144 |
| CAGGTTAA | -0.0709 |
| CTATGAGA | 0.0357 |
| AAAATCTA | 0.191 |
| ATGATGGC | -0.086 |
| AGCTACAA | -0.101 |
| ACGAGAGA | 0.107 |

| Sequence | PBM E-score |
| --- | --- |
| GATGCTAC | 0.16 |
| CCCGTGCC | 0.0054 |
| AAAATAGA | -0.0017 |
| ATTCAGTC | 0.0493 |
| AAATCACA | 0.0176 |
| AGCGGCCA | -0.282 |
| CGATCCCC | -0.144 |
| CAGATAAG | 0.0645 |
| GGTATTCA | 0.151 |
| AGCACTCC | -0.0214 |
| CACCTGTC | -0.0762 |
| ACAGGGCA | -0.0566 |
| GTCTTATA | 0.107 |
| CCCGCTGC | -0.1 |
| CGCGCTGC | -0.165 |
| GCGCTGCA | -0.0823 |
| GTCCCGCA | -0.082 |
| CTGGAACA | 0.0661 |
| GACTCACA | 0.0366 |
| CTGAACAG | -0.101 |
| AGTCACTC | 0.232 |
| AGTTGATA | 0.188 |
| CTCGATCA | -0.00993 |
| ACGCGAAA | -0.0249 |
| AGCTAAAC | -0.208 |

Part of the list above, with tabs.
Sequence	PBM E-score
AACGAGTC	0.0142
AGCATTGG	-0.299

(listing goes on)

| Sequence | PBM E-score |
| --- | --- |
| CGTCCTCC | 0.0156 |
| CGTTATGA | 0.0508 |
| AAAACTGT | 0.0603 |
| AAACTTAC | 0.0825 |
| ATCTAGTC | 0.0446 |
| GACGCTAA | -0.0862 |
| GCACTGCA | -0.00608 |
| ATGGGATC | -0.0255 |
| CCCCACCA | -0.17 |
| AGAGTCGA | -0.127 |
| CTGACGAA | 0.239 |
| ACGGTCCC | 0.181 |
| AGCAAACC | -0.00608 |
| GCCGGCTA | -0.138 |
| CGGTCACG | 0.164 |
| ATATCCCC | -0.0828 |
| GGGTCACC | -0.0595 |
| AGCGGGAG | -0.192 |
| CAGATCGC | 0.0919 |
| AGCAGCTC | -0.112 |
| ATGGGTCC | -0.0928 |
| AGGGCTAC | -0.279 |
| GCACGCTA | -0.0704 |
| CTTGGTCA | -0.0485 |
| GCGGAAGA | 0.0169 |

| Sequence | PBM E-score |
| --- | --- |
| CGCTCATC | 0.13 |
| ACAGCTAA | -0.159 |
| ATTAGGTG | 0.0471 |
| ACCTGGTA | -0.0202 |
| GAACAAGC | -0.139 |
| ATCATTAG | 0.279 |
| ATCATACA | 0.236 |
| GAAAAGCC | -0.21 |
| TGTTTAAA | -0.101 |
| GCGGCCCC | -0.172 |
| TATGGGCA | -0.0697 |
| CGCGTGTC | 0.0878 |
| ATTTTAGC | 0.23 |
| GGATTTCA | -0.142 |
| ATCTGGAC | -0.106 |
| AGGTCAGG | -0.146 |
| GGGCCTTA | -0.124 |
| GCCGGGCC | -0.246 |
| ACGAATAA | 0.215 |
| ACCAACCG | 0.0265 |
| GCGAGGCC | -0.093 |
| GACCAGAA | 0.00619 |
